Record: PubChem BioAssay AID1508587 (Peter MacCallum Cancer Centre, 2020)

Test: 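Follow-up of vemurafenib sensitisers scored by lactate made per cell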 (follow-up of hits)
Cell system: human WM266.4 melanoma cells with a BRAF V600 mutation
Knock-down reagent: single siRNA against human genes, 25 nM
Timing: 96 h
Challenge: vemurafenib 300 nM (about IC25), given 48 h after transfection for 48 h
Read-out: 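Medium lactate read by absorbance over DAPI-counted nuclei; ratio with versus without vemurafenib, set against non-targeting siRNA, averaged over 2 replicates; cell number also recorded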
Reading the numbers: lactate per cell, drug vs no drug: higher = less drug-induced drop in lactate per cell; lactate per cell with vemurafenib: higher = more lactate per cell under drug; lactate per cell without drug: higher = more lactate per cell without drug; cell growth with vemurafenib and cell growth without drug: higher = more cell growth over 48 h
Active means: 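a duplex is active when its lactate-per-cell ratio with versus without drug falls under 0.55, i.e. 2 SD below non-targeting; a gene is confirmed if 2 or more of 4 duplexes pass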
In all, the deposit lists about 1,600 reagents; shown is an unselected part. Over the whole deposit, 623 (39%) are marked active. 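Calls are for each duplex; lactate ratios contain extreme outliers.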

target gene,PubChem SID,"lactate per cell, drug vs no drug",lactate per cell with vemurafenib,lactate per cell without drug,cell growth with vemurafenib,cell growth without drug,Call
PPIA (peptidylprolyl isomerase A),SID134232533,0.41,2.47,4.01,0.17,0.02,active
PPIA (peptidylprolyl isomerase A),SID134232534,0.68,10.3,9.75,-0.02,-0.05,inactive
PPIA (peptidylprolyl isomerase A),SID134232535,0.52,1.23,1.56,0.35,0.36,active
PPIA (peptidylprolyl isomerase A),SID135611682,0.48,0.7,0.94,0.58,0.54,active
"ALG2 (ALG2 alpha-1,3/1,6-mannosyltransferase)",SID134296741,0.66,1.16,1.15,0.66,0.73,inactive
"ALG2 (ALG2 alpha-1,3/1,6-mannosyltransferase)",SID134296742,0.44,0.88,1.35,0.3,0.25,active
"ALG2 (ALG2 alpha-1,3/1,6-mannosyltransferase)",SID134296743,0.48,0.71,0.95,1.33,0.83,active
"ALG2 (ALG2 alpha-1,3/1,6-mannosyltransferase)",SID134296744,0.51,0.97,1.23,0.26,0.37,active
LGR4 (leucine rich repeat containing G protein-coupled receptor 4),SID134229793,0.58,1.77,1.92,0.64,0.37,inactive
LGR4 (leucine rich repeat containing G protein-coupled receptor 4),SID134229794,0.44,0.82,1.18,1.03,0.78,active
LGR4 (leucine rich repeat containing G protein-coupled receptor 4),SID134229795,0.54,1.08,1.28,0.21,0.52,active
LGR4 (leucine rich repeat containing G protein-coupled receptor 4),SID134229796,0.77,1.68,1.38,0.24,0.24,inactive
PDCD6IP (programmed cell death 6 interacting protein),SID134231061,0.68,1.27,1.21,0.83,0.64,inactive
PDCD6IP (programmed cell death 6 interacting protein),SID134231062,0.48,1.14,1.49,0.35,0.24,active
PDCD6IP (programmed cell death 6 interacting protein),SID134231063,0.42,2.81,4.19,-0.02,-0.07,active
PDCD6IP (programmed cell death 6 interacting protein),SID134231064,0.84,1.38,1.02,0.05,0.23,inactive
ANKRD13B (ankyrin repeat domain 13B),SID134280238,0.55,1.06,1.26,0.17,0.38,inactive
ANKRD13B (ankyrin repeat domain 13B),SID134280239,0.68,2.34,2.37,0.28,0.19,inactive
ANKRD13B (ankyrin repeat domain 13B),SID134280240,0.84,1.78,1.45,0.78,0.52,inactive
ANKRD13B (ankyrin repeat domain 13B),SID135615635,0.65,0.98,1.04,0.53,0.94,inactive
TPRA1 (transmembrane protein adipocyte associated 1),SID134234429,0.5,1.67,2.12,0.44,0.2,active
TPRA1 (transmembrane protein adipocyte associated 1),SID134234430,0.52,0.94,1.14,0.45,0.46,active
TPRA1 (transmembrane protein adipocyte associated 1),SID134234431,0.45,0.59,0.83,0.47,0.4,active
TPRA1 (transmembrane protein adipocyte associated 1),SID134234432,0.67,1.15,1.07,0.49,0.66,inactive
PDIK1L (PDLIM1 interacting kinase 1 like),SID56477031,0.62,1.94,2.06,0.3,0.23,inactive
PDIK1L (PDLIM1 interacting kinase 1 like),SID56477032,0.47,1.66,2.23,0.14,0.1,active
PDIK1L (PDLIM1 interacting kinase 1 like),SID56477033,0.49,0.69,0.88,0.41,0.62,active
PDIK1L (PDLIM1 interacting kinase 1 like),SID56477034,0.74,1.13,0.99,1.06,1.27,inactive
MTG1 (mitochondrial ribosome associated GTPase 1),SID134267965,0.36,0.61,1.22,-0.03,0,active
MTG1 (mitochondrial ribosome associated GTPase 1),SID134267966,0.72,1.6,1.53,0.25,0.31,inactive
MTG1 (mitochondrial ribosome associated GTPase 1),SID134267967,0.56,0.63,0.76,0.57,0.63,inactive
MTG1 (mitochondrial ribosome associated GTPase 1),SID134267968,0.5,1.1,1.52,0.41,0.29,active
ZNF829 (zinc finger protein 829),SID134305333,0.46,1.02,1.44,0.28,0.21,active
ZNF829 (zinc finger protein 829),SID134305334,0.65,1.22,1.34,0.39,0.44,inactive
ZNF829 (zinc finger protein 829),SID134305335,0.51,0.97,1.17,0.76,0.62,active
ZNF829 (zinc finger protein 829),SID134305336,0.52,1.03,1.23,0.37,0.36,active
RASGRP2 (RAS guanyl releasing protein 2),SID134246206,0.66,3.15,2.96,-0.21,-0.09,inactive
RASGRP2 (RAS guanyl releasing protein 2),SID134246207,0.3,0.94,2.14,0.34,0.29,active
RASGRP2 (RAS guanyl releasing protein 2),SID134246208,0.73,1.02,0.88,1.08,1.18,inactive
RASGRP2 (RAS guanyl releasing protein 2),SID152147488,0.64,1.34,1.31,0.62,0.65,inactive
OSBPL9 (oxysterol binding protein like 9),SID134248141,0.66,1.08,1.18,0.78,0.9,inactive
OSBPL9 (oxysterol binding protein like 9),SID134248144,0.48,1.06,1.54,-0.13,0.15,active
OSBPL9 (oxysterol binding protein like 9),SID135613073,0.62,1.14,1.33,0.86,0.72,inactive
OSBPL9 (oxysterol binding protein like 9),SID135613074,1,1.28,0.92,0.13,0.7,inactive
APLN (apelin),SID134273677,0.84,3.44,2.68,0.18,0.2,inactive
APLN (apelin),SID134273678,0.51,2.81,3.48,0.05,-0.05,active
APLN (apelin),SID134273679,0.8,2.16,1.69,0.3,0.29,inactive
APLN (apelin),SID134273680,0.6,1.4,1.44,0.12,0.23,inactive
PACSIN1 (protein kinase C and casein kinase substrate in neurons 1),SID56478031,0.49,0.82,1.05,0.97,0.95,active
PACSIN1 (protein kinase C and casein kinase substrate in neurons 1),SID56478032,0.47,0.75,1,0.22,0.19,active
PACSIN1 (protein kinase C and casein kinase substrate in neurons 1),SID56478033,0.55,1.06,1.23,0.43,0.42,inactive
PACSIN1 (protein kinase C and casein kinase substrate in neurons 1),SID56478034,0.64,1,0.98,0.66,1,inactive

In a second layout: 2 of the entries above.
| target gene | PubChem SID | lactate per cell, drug vs no drug | lactate per cell with vemurafenib | lactate per cell without drug | cell growth with vemurafenib | cell growth without drug | Call |
| --- | --- | --- | --- | --- | --- | --- | --- |
| LGR4 (leucine rich repeat containing G protein-coupled receptor 4) | SID134229795 | 0.54 | 1.08 | 1.28 | 0.21 | 0.52 | active |
| LGR4 (leucine rich repeat containing G protein-coupled receptor 4) | SID134229796 | 0.77 | 1.68 | 1.38 | 0.24 | 0.24 | inactive |
